Measurements from paper PMC6998106.
No constants are given. Whether binding was seen depends on the method and setting. Binding seen in cells or lysates may run through a third protein.

The chains behind the UniProt entries cited, without tags or fusion partners.
UniProt P10275: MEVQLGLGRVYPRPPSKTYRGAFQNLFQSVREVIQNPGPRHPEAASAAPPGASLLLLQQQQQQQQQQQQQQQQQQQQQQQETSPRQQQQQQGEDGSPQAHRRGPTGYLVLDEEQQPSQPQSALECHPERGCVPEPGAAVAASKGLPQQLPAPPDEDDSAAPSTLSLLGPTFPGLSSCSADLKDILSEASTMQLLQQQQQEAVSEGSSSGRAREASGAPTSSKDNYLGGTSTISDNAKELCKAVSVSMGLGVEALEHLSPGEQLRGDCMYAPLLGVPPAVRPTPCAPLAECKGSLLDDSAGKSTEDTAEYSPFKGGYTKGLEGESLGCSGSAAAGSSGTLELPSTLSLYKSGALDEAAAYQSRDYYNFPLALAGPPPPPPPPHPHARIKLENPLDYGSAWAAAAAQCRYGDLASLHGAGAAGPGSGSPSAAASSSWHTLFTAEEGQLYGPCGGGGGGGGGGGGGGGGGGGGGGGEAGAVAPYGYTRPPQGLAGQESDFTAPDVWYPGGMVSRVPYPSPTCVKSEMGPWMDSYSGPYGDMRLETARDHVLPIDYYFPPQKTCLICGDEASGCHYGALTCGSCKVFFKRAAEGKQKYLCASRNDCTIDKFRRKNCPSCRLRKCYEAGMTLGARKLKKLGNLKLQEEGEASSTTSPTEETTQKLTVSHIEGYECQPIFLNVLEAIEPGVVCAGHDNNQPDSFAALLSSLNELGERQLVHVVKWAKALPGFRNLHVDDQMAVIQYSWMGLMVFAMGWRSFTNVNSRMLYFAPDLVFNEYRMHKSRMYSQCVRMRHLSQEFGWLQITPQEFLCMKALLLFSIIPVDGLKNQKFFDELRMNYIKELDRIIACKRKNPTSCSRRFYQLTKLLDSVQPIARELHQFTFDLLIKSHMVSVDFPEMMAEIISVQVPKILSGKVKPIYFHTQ
UniProt Q9NRC8: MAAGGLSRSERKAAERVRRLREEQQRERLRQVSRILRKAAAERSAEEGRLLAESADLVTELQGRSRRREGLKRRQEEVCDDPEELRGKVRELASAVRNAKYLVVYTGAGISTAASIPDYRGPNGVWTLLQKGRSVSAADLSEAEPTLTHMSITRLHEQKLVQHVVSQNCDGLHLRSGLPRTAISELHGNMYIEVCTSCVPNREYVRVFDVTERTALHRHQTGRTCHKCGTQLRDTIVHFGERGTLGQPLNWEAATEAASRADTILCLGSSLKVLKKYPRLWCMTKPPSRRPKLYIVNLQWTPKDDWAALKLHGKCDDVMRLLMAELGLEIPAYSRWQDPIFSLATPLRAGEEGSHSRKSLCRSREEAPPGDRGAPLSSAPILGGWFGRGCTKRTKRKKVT

Key:
[1] = target: Myc-AR (UniProt P10275); test: co-IP; tagged proteins Myc-AR and FLAG-SIRT7; precipitated with anti-myc or anti-FLAG, immunoblots; cell line not stated
[2] = target: FLAG-SIRT7 (UniProt Q9NRC8); test: as above
[3] = target: Sirtuin-7 (SIRT7), endogenous (human (endogenous in 22Rv1)) (UniProt Q9NRC8); test: co-IP; endogenous proteins of 22Rv1 cells; Pierce IP lysis/wash buffer with protease inhibitors; lysates with anti-SIRT7 or anti-SMAD4 antibodies or control IgG at 4 °C overnight, magnetic beads, western blotting

FLAG-SIRT7 (from UniProt Q9NRC8 1-400) (enzyme)
binding [1]: no binding

Myc-AR (from UniProt P10275 1-920) (receptor)
binding [2]: no binding

Androgen receptor (AR), endogenous (from UniProt P10275 1-920)
binding [3]: no binding
